In patent publication US20160326153A1, “N-SUBSTITUTED IMINO HETEROCYCLIC COMPOUNDS” (BASF SE, priority 2013, published 2016):
Some results were stated once for a whole list of compounds, not compound by compound. For part of these data: At least one structure is not confirmed: it was looked up by name or label, or the drawing left a doubt.

What was measured:
Assay type in all cases: in vivo
Myzus persicae [1] = test: Green peach aphid (Myzus persicae) through systemic means, artificial diet under membrane in microtiter plates; settings: 2500 ppm, 3 days
Excerpt: For evaluating control of green peach aphid (Myzus persicae) through systemic means the test unit consisted of 96-well-microtiter plates containing liquid artificial diet under an artificial membrane.
The compounds were formulated using a solution containing 75% v/v water and 25% v/v DMSO. Different concentrations of formulated compounds were pipetted into the aphid diet, using a custom built pipetter, at two replications.
After application, 5-8 adult aphids were placed on the artificial membrane inside the microtiter plate wells. The aphids were then allowed to suck on the treated aphid diet and incubated at about 23±1° C. and about 50±5% relative humidity for 3 days. Aphid mortality and fecundity was then visually assessed.

Megoura viciae = test: Vetch aphid (Megoura viciae) through contact or systemic means, broad bean leaf disks; settings: 2500 ppm, 5 days
Experimental: B.10 Vetch Aphid (Megoura viciae)
For evaluating control of vetch aphid (Megoura viciae) through contact or systemic means the test unit consisted of 24-well-microtiter plates containing broad bean leaf disks.
The compounds were formulated using a solution containing 75% v/v water and 25% v/v DMSO. Different concentrations of formulated compounds were sprayed onto the leaf disks at 2.5 μl, using a custom built micro atomizer, at two replications.
After application, the leaf disks were air-dried and 5-8 adult aphids placed on the leaf disks inside the microtiter plate wells. The aphids were then allowed to suck on the treated leaf disks and incubated at about 23±1° C. and about 50±5% relative humidity for 5 days. Aphid mortality and fecundity was then visually assessed.

Aedes aegypti = settings: 2500 ppm; larval mortality after 2 days
Experimental: B.11 Yellow Fever Mosquito (Aedes aegypti)
For evaluating control of yellow fever mosquito (Aedes aegypti) the test unit consisted of 96-well-microtiter plates containing 200 μl of tap water per well and 5-15 freshly hatched A. aegypti larvae.
The active compounds were formulated using a solution containing 75% (v/v) water and 25% (v/v) DMSO. Different concentrations of formulated compounds or mixtures were sprayed onto the insect diet at 2.5 μl, using a custom built micro atomizer, at two replications.
After application, microtiter plates were incubated at 28+1° C., 80+5% RH for 2 days. Larval mortality was then visually assessed.

Nephotettix virescens = test: Rice green leafhopper (Nephotettix virescens) on sprayed rice seedlings; settings: 500 ppm; after 72 hours
Experimental: B.7 Rice Green Leafhopper (Nephotettix virescens)
Rice seedlings were cleaned and washed 24 hours before spraying. The active compounds were formulated in 1:1 acetone:water (vol:vol), and 0.01% vol/vol surfactant (Kinetic HV) was added. Potted rice seedlings were sprayed with 5-6 ml test solution, air dried, covered with Mylar cages cages and inoculated with 10 adults. Treated rice plants were kept at about 28-29° C. and relative humidity of about 50-60%. Percent mortality was recorded after 72 hours.

Aphis gossypii = test: Cotton aphid (Aphis gossypii) on sprayed cotton plants; settings: 300 ppm; aphid mortality after 5 days
Aphis craccivora = test: Cowpea aphid (Aphis craccivora) on sprayed cowpea plants; settings: 500 ppm; after 72 hours
Experimental: B.3 Cowpea Aphid (Aphis craccivora)
The active compound is dissolved at the desired concentration in a mixture of 1:1 (vol:vol) distilled water:acetone. Surfactant (Kinetic HV) is added at a rate of 0.01% (vol/vol). The test solution is prepared at the day of use.
Potted cowpea plants were colonized with approximately 50-100 aphids of various stages by manually transferring a leaf tissue cut from infested plant 24 hours before application. Plants were sprayed after the pest population has been recorded. Treated plants are maintained on light carts at about 28° C. Percent mortality was assessed after 72 hours.

Myzus persicae [2] = test: Green peach aphid (Myzus persicae) on sprayed bell pepper plants; settings: 300 ppm, after 5 days
Bemisia argentifolii = test: Silverleaf whitefly (Bemisia argentifolii) on sprayed cotton plants; settings: 500 ppm; 3 days after treatment

Measured: mortality in comparison with untreated controls

CC(=O)ON=c1ccccn1Cc1ccc(Cl)nc1 (mixture of isomers) [IA.1-2, [(E/Z)-[1-[(6-chloro-3-pyridyl)methyl]-2-pyridylidene]amino]acetate]
at least 75%: Myzus persicae [1] | Megoura viciae | Aedes aegypti

CC(=O)ON=c1ccccn1Cc1cnc(Cl)s1 [IA.1-1]
at least 75%: Myzus persicae [1] | Nephotettix virescens | Aedes aegypti

N#CC1(C(=O)ON=c2ccccn2Cc2cnc(Cl)s2)CC1 [IA.1-3]
at least 75%: Myzus persicae [1] | Megoura viciae | Aedes aegypti

CON=C(C#N)C(=O)ON=c1ccccn1Cc1cnc(Cl)s1 [IA.1-6]
at least 75%: Myzus persicae [1] | Aedes aegypti

CON=C(C#N)C(=O)ON=c1ccccn1Cc1ccc(Cl)nc1 [IA.1-7]
at least 75%: Myzus persicae [1] | Nephotettix virescens | Megoura viciae | Aedes aegypti

N#CC1(C(=O)ON=c2ccccn2Cc2ccc(Cl)nc2)CC1 [IA.1-8]
at least 75%: Myzus persicae [1] | Nephotettix virescens | Megoura viciae | Aedes aegypti

O=C(ON=c1ccccn1Cc1cnc(Cl)s1)C(F)F [IA.1-9]
at least 75%: Myzus persicae [1] | Megoura viciae | Aedes aegypti

CCNC(=O)NN=c1ccccn1Cc1cnc(Cl)s1 [IB.1-7]
not listed: Bemisia argentifolii
at least 75%: all other assays above

O=C(NCC(F)(F)F)NN=c1ccccn1Cc1cnc(Cl)s1 [IB.1-10]
not listed: Bemisia argentifolii
at least 75%: all other assays above

O=C(NN=c1ccccn1Cc1cnc(Cl)s1)Nc1ccc(Cl)cc1 [IB.1-13]
not listed: Aphis craccivora | Bemisia argentifolii
at least 75%: all other assays above

O=C(NN=c1ccccn1Cc1cnc(Cl)s1)Nc1ccc(C(F)(F)F)cc1 [IB.1-14]
not listed: Aphis craccivora | Bemisia argentifolii
at least 75%: all other assays above

N#CCC(=O)NN=c1ccccn1Cc1cnc(Cl)s1 [IB.1-15]
at least 75%: Aphis gossypii | Myzus persicae [2] | Myzus persicae [1] | Nephotettix virescens | Megoura viciae

O=C(NN=c1ccccn1Cc1ccc(Cl)nc1)Nc1ccc(C(F)(F)F)cc1 [IB.1-20]
not listed: Aedes aegypti | Aphis craccivora
at least 75%: all other assays above

O=C(NN=c1ccccn1Cc1ccc(Cl)nc1)Nc1ccc(Cl)cc1 [IB.1-21]
at least 75%: Myzus persicae [2] | Myzus persicae [1] | Nephotettix virescens | Bemisia argentifolii | Megoura viciae

Cc1cc(C)c(NC(=O)NN=c2ccccn2Cc2ccc(Cl)nc2)c(C)c1 [IB.1-25]
at least 75%: Myzus persicae [1] | Nephotettix virescens

Cc1ccccc1NC(=O)NN=c1ccccn1Cc1ccc(Cl)nc1 [IB.1-26]
at least 75%: Aphis craccivora | Myzus persicae [1] | Nephotettix virescens | Megoura viciae

N#Cc1cccc(NC(=O)NN=c2ccccn2Cc2ccc(Cl)nc2)c1 [IB.1-28]
at least 75%: Myzus persicae [1] | Megoura viciae

O=C(NN=c1ccccn1Cc1ccc(Cl)nc1)Nc1ccc(Cl)cc1Cl [IB.1-29]
at least 75%: Myzus persicae [1]

Cc1cccc(C)c1NC(=O)NN=c1ccccn1Cc1ccc(Cl)nc1 [IB.1-30]
at least 75%: Myzus persicae [1]

COc1ccc(NC(=O)NN=c2ccccn2Cc2ccc(Cl)nc2)c(OC)c1 [IB.1-31]
at least 75%: Myzus persicae [1]

CC(=O)c1ccc(NC(=O)NN=c2ccccn2Cc2ccc(Cl)nc2)cc1 [IB.1-32]
at least 75%: Myzus persicae [1]

CCNC(=S)NN=c1ccccn1Cc1cnc(Cl)s1 [IC.1-1]
at least 75%: Myzus persicae [2] | Myzus persicae [1] | Megoura viciae | Aedes aegypti

FC(F)(F)CNC(=S)NN=c1ccccn1Cc1cnc(Cl)s1 [IC.1-2]
at least 75%: Aphis gossypii | Myzus persicae [2] | Myzus persicae [1] | Megoura viciae

CCNC(=S)NN=c1ccccn1Cc1ccc(Cl)nc1 [IC.1-3]
at least 75%: Myzus persicae [2] | Myzus persicae [1] | Nephotettix virescens | Bemisia argentifolii | Megoura viciae

FC(F)(F)CNC(=S)NN=c1ccccn1Cc1ccc(Cl)nc1 [IC.1-4]
not listed: Aphis gossypii | Aphis craccivora
at least 75%: all other assays above

CNC(=S)NN=c1ccccn1Cc1ccc(Cl)nc1 [IC.1-5]
at least 75%: Myzus persicae [2] | Myzus persicae [1] | Bemisia argentifolii | Megoura viciae

CNC(=S)NN=c1ccccn1Cc1cnc(Cl)s1 [IC.1-6]
at least 75%: Aphis gossypii | Myzus persicae [2] | Myzus persicae [1]
